Results are given in words; binding and its absence hold for the method and conditions named. In cells and extracts the contact can be indirect. Binding calls can cover weak binding; strength is not graded here. Where a sequence is shown, tags or fusion partners need not be part of it.

One molecule from publication PMC12557800 can be followed below.

In the assay the target is mouse SLC9C1 ΔExchanger-PA (lacking the exchanger domain) (mouse). Put plainly: co-IP; HEK293T cell lysates coexpressing mouse TMEM217-3xFLAG and mouse SLC9C1-PA (full length or truncated); IP with anti-FLAG or anti-PA antibodies, immunoblot with FLAG and PA antibodies. For orientation: Immunoblotting shows a protein as a band on a membrane.

B1: mouse TMEM217-3xFLAG expressed in HEK293T cells (protein, UniProt Q14AF1 1-189)
chain: MKHHSWCGLTARMGTVLSGVFSIMATHMHLIFERKHLGNGNCTENFQAQGLNILRYFFICWSFQIVLFTSIITMIASCFLLYSVYAQIYEGLMSYVIWIIIYESTSLTVQTLTDEFSVALVRAMRWFGWVSRASLHCFWLYFVVTHAQIIYQSKKQGNILTYHRRISLGSGDRPRRKSKIIHFVQHHSE
In the case of B1, the binding entry is on record as “binds”.
